Experimental data taken from article PMC4944119.
No constants are given. Whether binding was seen depends on the method and setting. Binding seen in cells or lysates may run through a third protein. Some results given as binding are weak or reduced against the parent protein; the word gives no strength.

Tests used:
[1] = target: T1, gp91^phox, membrane-bound catalytic subunit of NADPH oxidase isoform 2 (NOX2) (mouse (endogenous in FDB muscle of BALB/c mice)) (UniProt Q61093); assay: proximity ligation; Duolink in situ PLA on fixed 10 um cryosections of FDB muscle, primary antibodies against p47phox and gp91phox (proximity <40 nm); mice at rest or exercised, treated with vehicle or apocynin
T1 sequence: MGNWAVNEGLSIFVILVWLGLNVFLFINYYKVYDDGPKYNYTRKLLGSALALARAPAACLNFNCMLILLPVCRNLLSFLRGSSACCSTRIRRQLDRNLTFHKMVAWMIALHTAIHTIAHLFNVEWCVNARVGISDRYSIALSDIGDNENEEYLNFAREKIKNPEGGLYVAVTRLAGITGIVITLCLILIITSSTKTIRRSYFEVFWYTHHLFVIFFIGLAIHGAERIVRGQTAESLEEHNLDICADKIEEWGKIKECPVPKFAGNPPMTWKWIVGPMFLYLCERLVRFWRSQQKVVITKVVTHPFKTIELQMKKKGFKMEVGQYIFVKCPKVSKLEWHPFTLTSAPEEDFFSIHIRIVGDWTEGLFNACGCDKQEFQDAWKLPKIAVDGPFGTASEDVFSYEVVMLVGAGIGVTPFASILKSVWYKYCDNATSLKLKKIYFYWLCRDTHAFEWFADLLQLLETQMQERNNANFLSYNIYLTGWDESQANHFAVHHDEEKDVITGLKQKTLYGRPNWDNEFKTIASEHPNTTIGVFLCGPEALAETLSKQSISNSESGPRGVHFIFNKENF

[2] = target: T1, gp91^phox, membrane-bound catalytic subunit of NADPH oxidase isoform 2 (NOX2) (mouse (endogenous in FDB muscle of BALB/c mice)); assay: co-IP; whole FDB muscle lysates (100 ug protein; 0.1% Nonidet P-40, 140 mM NaCl, pH 7.4) of vehicle-treated mice at rest or after 60 min of swimming exercise; immunoprecipitating antibody 4 h, A/G agarose, immunoblot; which subunit was precipitated is not stated

B1: p47^phox, cytosolic regulatory subunit of NADPH oxidase isoform 2 (NOX2) (protein, UniProt Q09014 1-390)
chain: MGDTFIRHIALLGFEKRFIPSQHYVYMFLVKWQDLSEKVVYRKFTEIYEFHKMLKEMFPIEAGEIHTENRVIPHLPAPRWFDGQRAAESRQGTLTEYFNGLMGLPVKISRCPHLLDFFKVRPDDLKLPTDSQAKKPETYLVPKDGKNNVADITGPIILQTYRAIADYEKSSGTEMTVATGDVVDVVEKSESGWWFCQMKTKRGWVPASYLEPLDSPDEAEDPDPNYAGEPYVTIKAYAAVEEDEMSLSEGEAIEVIHKLLDGWWVVRKGDITGYFPSMYLQKAGEEITQAQRQIRGRGAPPRRSTIRNAQSIHQRSRKRLSQDTYRRNSVRFLQQRRRPGRPGPLSTDGTKDNPSTPRVKPQPAVPPRPSSDLILHRCTESTKRKLTSAV
- binding [1]: binds
- binding [2]: binds
